Results published in PubChem BioAssay AID504834 (National Center for Advancing Translational Sciences (NCATS), 2011).
Where “and” joins values, the source holds several entries; their conditions need not be identical. Equal entries are not always repeated. Among all 320,000 compounds or so, about 22,000 (6.9%) were called active. The shares of active, inactive and inconclusive entries below differ from those in the screen. Calls follow the shape of the dose curve; as a rule, active = well fitted inhibition curve with a large enough effect; inconclusive = small, poorly fitted or top-dose-only effect, or another doubt; inactive = no such curve, though single readings can be large or run the other way. Potencies of inconclusive entries are doubtful fits and often do not repeat. Where a SMILES comes first, the peptide text is derived from it. [ ]: non-standard residue; d: D form. The star is where a group is joined. ξ: configuration not given here. ξF = NC(Cc1ccccc1)C(=O)O; Cbz = O=C(OCc1ccccc1)*

Experiment: Primary qHTS for delayed death inhibitors of the malarial parasite plastid, 96 hour incubation
Settings: P. falciparum luciferase reporter growth; series mostly up to 28.7 µM; activity change, negative = inhibition: at the top concentration
Outline: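 Two parasite generations (96 h, 37 C, 5% CO2) of compound exposure in infected erythrocytes (0.05% parasitemia, 2% hematocrit). Luciferase-reporter P. falciparum; decreased luminescence indicates inhibited growth, aimed at apicoplast-acting delayed death.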
% is scaled to controls: 0 for no effect and ±100 for the full control effect; potency is read from the fitted curve at half-maximal effect.

| SMILES | Potency | activity change, negative = inhibition |
| --- | --- | --- |
| COc1ccc(CNC(=O)CN(C)S(=O)(=O)c2ccc(Cl)cc2)cc1 | inconclusive: 1.31 µM [inhibitor, full curve, poor fit] |  |
| Fc1ccc(C(OCCN2CCCC2)c2ccc(F)cc2)cc1 | inconclusive: 14.7 µM [inhibitor, single point] |  |
| N[C@@H](C(=O)N[C@@H]1C(=O)N2C(C(=O)O)=C(Cl)CS[C@H]12)c1ccccc1 | inactive and inconclusive: 18.5 µM [inhibitor, single point] |  |
| COc1cc([N+](=O)[O-])ccc1NC(=O)CSc1nc2ccccc2n1-c1ccccc1 | active: 10.4 µM |  |
| Cc1ccc(C(=O)N[C@H](C(=O)NC2CCCCCCC2)C(C)C)cc1 | inconclusive: 13.1 µM [inhibitor, single point] |  |
| Cc1cccc(C(=O)N/N=C/c2ccc[nH]2)c1 |  | inactive: 80.7% |
| O=S(=O)(Nc1nc2ccccc2nc1NCC1CCCO1)c1cccs1 (stereo not given) | inconclusive: 0.37 µM [inhibitor, full curve, poor fit] |  |
| COc1cc(C(=O)O[C@H]2CC(C)=CC[C@@]3(C)CC[C@@](O)(C(C)C)[C@H]23)ccc1O | inconclusive: 11.7 µM [inhibitor, single point] |  |
| C=CCn1c(SCC(=O)Nc2ccc(NC(C)=O)cc2)nc2sc(C)c(C)c2c1=O | inconclusive: 18.5 µM [inhibitor, single point] |  |
| N#Cc1ccccc1S(=O)(=O)N1CCN(CC(=O)Nc2ccccc2C(=O)NC2CC2)CC1 | inconclusive: 5.22 µM [inhibitor, partial curve, poor fit] |  |
| CCN(c1cccc(C)c1)S(=O)(=O)c1cccc(C(=O)O)c1 |  | inactive: 29.9% |
| CC(C)[C@H](NC(=O)OCc1ccccc1)C(=O)NC(C=O)Cc1ccccc1 (stereo partly drawn) (Cbz-Val-[ξF]-aldehyde) | active: 3.7 µM |  |
| Cc1oc(-c2cccc(Cl)c2)nc1CS(=O)(=O)CC(=O)NC1CCCC1 | inconclusive: 0.117 µM [inhibitor, full curve, poor fit] |  |
| C[C@]12CC[C@@H]3c4ccc(O)cc4CC[C@H]3[C@@H]1C[C@H](O)C2O (stereo not given in full) | inconclusive: 4.78 µM [inhibitor, partial curve] |  |
| O=C(NCCc1cnn(-c2ccccc2)c1)c1cc(COc2c(F)cccc2F)on1 | inconclusive: 18.5 µM [inhibitor, single point] |  |
| CCOc1cc(-c2nc(-c3ccc(OC)cc3)no2)cc(OCC)c1OCC | inconclusive: 10.4 µM [inhibitor, single point] |  |
| O=C(NC1CCCCC1)C(c1cccs1)N(C(=O)c1ccccn1)c1ccccc1 (stereo not given) | inconclusive: 4.15 µM [inhibitor, single point] |  |
| O=C1CCCN2N=C(SCC(=O)N3N=C(c4ccc(Br)cc4)CC3c3ccc(F)cc3)SC2=N1 (stereo not given) | inconclusive: 10.4 µM [inhibitor, partial curve, poor fit] |  |
| O=C(O)c1ccc(-c2nc(-c3ccccc3)c(-c3ccccc3)[nH]2)cc1 | inconclusive: 18.5 µM [inhibitor, single point] |  |
| CCn1c2ccccc2c2nnc(SCCCn3c(=O)[nH]c4ccccc43)nc21 | active: 2.33 µM |  |
| COc1ccc(NC(=O)c2sc3cc(C(F)(F)F)cnc3c2-c2cccs2)cc1 | active: 11.7 µM |  |
| Cc1cccn2c(=O)c3cc(C(=O)NCc4ccco4)c(=N)n(CCOCCO)c3nc12 | inconclusive: 18.5 µM [inhibitor, single point] |  |
| CCn1c(SCC(=O)Nc2ccc3c(c2)OCCO3)nnc1-c1cccnc1 | inconclusive: 10.4 µM [inhibitor, single point] |  |

| SMILES | Potency | activity change, negative = inhibition |
| --- | --- | --- |
| Cn1c(=O)c2c(nc(NN=C3CCCC3)n2C)n(C)c1=O |  | inactive: 5.65% |
| Cc1cc(C)cc(NC(=O)C(OC(=O)c2ccc([N+](=O)[O-])o2)c2ccccc2)c1 (stereo not given) |  | inactive: -26.6% |
| CCOC(=O)C(NC(=O)CC)(N1CCc2ccccc2C1)C(F)(F)F (stereo not given) |  | inactive: 101% |
| O=C(NC(=S)N1CCN(c2ccc(C(F)(F)F)cc2[N+](=O)[O-])CC1)c1cccs1 | active: 4.15 µM |  |
| CCCn1c(N)c(N(CCOC)C(=O)c2cc3c(s2)CCC(CC)C3)c(=O)[nH]c1=O (stereo not given) |  | inactive: 10.5% |
| Cc1ccc(OCC(=O)N/N=C/c2cn(C)c3ccccc23)cc1 |  | inactive: -5.61% |
| CCn1c(CC(=O)Nc2ccccc2Cl)nnc1SCC(=O)NC1CCCC1 |  | inactive: -4.15% |
| Cc1ccc(C(=O)/C=C/NNC(=O)c2ccccc2O)cc1 |  | inactive: -20.5% |
| O=C(CNC(=S)N(Cc1ccccc1)Cc1ccccc1F)NCc1ccccc1 | inconclusive: 18.5 µM [inhibitor, single point] |  |
| CCN=C1SC(C(N)=O)CC(=O)N1CC (stereo not given) | inconclusive: 11.7 µM [inhibitor, partial curve] |  |
| Cc1ccc(OCCOCCN2CCCC2)c(Br)c1 |  | inactive: -15% |
| O=C(CNC(=O)c1ccco1)NCC(=O)OCc1ccc(Cl)cc1 | inconclusive: 0.0033 µM [inhibitor, full curve, poor fit] |  |
| COc1ccc(NC(=O)N2CCNC(=O)C2CC(=O)Nc2ccc(F)cc2)cc1 (stereo not given) |  | inactive: 11.2% |
| CN(C)c1cccc(C(=O)NCc2ccc3c(c2)OCO3)c1 | inconclusive: 13.1 µM [inhibitor, single point] |  |
| Cc1cc(-c2csc(NCc3ccccc3)n2)c(C)n1C | inconclusive: 10.4 µM [inhibitor, single point] |  |
| COC(=O)c1cccc(NC(=O)COC(=O)CSc2nc(C)cc(C)n2)c1 |  | inactive: 0% |
| Cc1ccc(C2=NC3(CCCCCC3)NC2=S)cc1 | inconclusive: 4.65 µM [inhibitor, partial curve, poor fit] |  |
| O=C(Cn1cc2c(n1)CCCC2)NCCCN1CCCC1 |  | inactive: -10.8% |
| Cc1ccc(-c2nnc(N(C)C(=O)C3CCCO3)s2)cn1 (stereo not given) | inconclusive: 2.94 µM [inhibitor, partial curve, poor fit] |  |
| Cc1ccc2nc3c(c(N)c2c1)CCN3C | inconclusive: 18.5 µM [inhibitor, single point] |  |
| CCCCC(C(=O)NC1CCCC1)N(Cc1ccco1)C(=O)Cn1nnc(-c2ccc(F)cc2)n1 (stereo not given) | active: 11.7 µM |  |
| O=c1cc(N2CCCCC2)c(-c2ccccc2)nn1Cc1cccc(F)c1 | active: 11.7 µM |  |
| Cc1ccc2c(c1)c1c(n2CC(O)CN2CCCCCC2)CCCC1 (stereo not given) |  | inactive: 20.5% |
| CCc1nnc(NC(=O)c2ccc(S(=O)(=O)N3CCCC(C)C3)cc2)s1 (stereo not given) |  | inactive: 33.7% |

Gathered by group: the compounds so far with a furan ring, fused or not

| SMILES | Potency | activity change, negative = inhibition |
| --- | --- | --- |
| Cc1cccn2c(=O)c3cc(C(=O)NCc4ccco4)c(=N)n(CCOCCO)c3nc12 | inconclusive: 18.5 µM [inhibitor, single point] |  |
| Cc1cc(C)cc(NC(=O)C(OC(=O)c2ccc([N+](=O)[O-])o2)c2ccccc2)c1 (stereo not given) |  | inactive: -26.6% |
| O=C(CNC(=O)c1ccco1)NCC(=O)OCc1ccc(Cl)cc1 | inconclusive: 0.0033 µM [inhibitor, full curve, poor fit] |  |
| CCCCC(C(=O)NC1CCCC1)N(Cc1ccco1)C(=O)Cn1nnc(-c2ccc(F)cc2)n1 (stereo not given) | active: 11.7 µM |  |

Continuation:

| SMILES | Potency | activity change, negative = inhibition |
| --- | --- | --- |
| Cc1nc2ccc(NS(=O)(=O)c3ccc(C)c(C)c3)cc2s1 |  | inactive: 23.2% |
| CC(C)C(NC(=O)c1ccccc1F)C(=O)Nc1ccc2c(c1)OCO2 (stereo not given) |  | inactive: -22.7% |
| O=C(NCCC1CCCCN1S(=O)(=O)c1ccc(F)cc1)C(=O)NCC1CCCO1 (stereo not given) |  | inactive: 1.13% |
| COc1ccc(CN2C(=O)C(Cc3ccccc3)Nc3ncnc(N4CCc5ccccc5C4)c32)cc1 (stereo not given) | active: 5.22 µM |  |
| Cc1ccc(/C=C/c2ccc(=O)n(Cc3ccc(Cl)cc3Cl)n2)cc1 | inconclusive: 4.15 µM [inhibitor, single point] |  |
| CC(OC(=O)c1ccc(Cl)nc1)C(=O)Nc1ccc2c(c1)OCO2 (stereo not given) |  | inactive: 2.54% |
| Cc1cc(C)cc(CSCC(=O)NN=C2CCCCCC2)c1 | inconclusive: 1.47 µM [inhibitor, partial curve, poor fit] |  |
| COc1ccc([C@H]2CC(=O)C=C(c3cccc(NC(C)=O)c3)C2)cc1 | inconclusive: 2.94 µM [inhibitor, single point] |  |
| Cc1cc(=O)n2nc(N3CCC(C(=O)NCc4ccco4)CC3)sc2n1 | inconclusive: 8.28 µM [inhibitor, partial curve, poor fit] |  |
| Cc1cccc(NC(=O)CN(C)C(C)C(=O)Nc2ccc(S(=O)(=O)N3CCCC3)cc2)c1C (stereo not given) | inconclusive: 5.86 µM [inhibitor, partial curve, poor fit] |  |
| O=C(CCc1ccc(O)c(O)c1)NNC(=S)NCCc1ccccc1 | inconclusive: 2.08 µM [inhibitor, partial curve, poor fit] |  |
| CCOc1ccccc1C1C(C#N)=C(N)N(N(C)C)C2=C1C(=O)CCC2 (stereo not given) | inconclusive: 18.5 µM [inhibitor, single point] |  |
| c1ccc(CCNc2c3c(nc4ncnn24)CCC3)cc1 |  | inactive: -29.6% |
| CCc1ccc(NC(=O)CN(c2cc(C)cc(C)c2)S(=O)(=O)c2c(C)[nH]c(=O)[nH]c2=O)cc1 | inconclusive: 0.0329 µM [inhibitor, full curve, poor fit] |  |
| CC(NC(=O)CNC(=O)Cc1cccc2ccccc12)c1ccc(S(N)(=O)=O)cc1 (stereo not given) | inconclusive: 18.5 µM [inhibitor, partial curve, poor fit] |  |
| CC(C)CC(=O)N(c1nnc(-c2cccnc2)s1)C1CCCC1 | inconclusive: 10.4 µM [inhibitor, partial curve] |  |
| COc1ccccc1CCC(=O)N(C)C1CCCN(Cc2ccccc2F)C1 (stereo not given) | active: 10.4 µM |  |
| CN1C(=O)N(C)C(=O)C2(Cc3c(nc4ccccn4c3=O)N3CCC(Cc4ccccc4)CC32)C1=O (stereo not given) |  | inactive: -15% |
| Cc1ccc(S(=O)(=O)N2CCC(C(=O)N3CCC[C@H]3C(=O)NCc3ccco3)CC2)cc1 | active: 13.1 µM |  |
| CCOc1cc(/C=C\[N+](=O)[O-])ccc1OCC(=O)Nc1ccccc1C |  | inactive: 10.9% |
| Cc1cc(S(=O)(=O)Nc2cccc(C(=O)O)c2)c(C)c(S(=O)(=O)c2ccc(Cl)cc2)c1 | inconclusive: 11.7 µM [inhibitor, partial curve] |  |
| O=c1[nH]c(=O)n(-c2ccccc2)c(O)c1/C=C/C=Nc1ccccc1 | inconclusive: 18.5 µM [inhibitor, single point] |  |
